# Source: the supplement of paper PMC8497498
# Some of the results follow. The data scatter; read single values as rough.
# Key:
# Conditions in all cases: 10 µM
# [1] = system: Plasmodium vivax liver stage (primary human hepatocyte culture); test: hypnozoite quantity inhibition (% inhibition); higher = more active against hypnozoites
# [2] = system: Plasmodium vivax liver stage (primary human hepatocyte culture); test: schizont net growth area inhibition (% inhibition); higher = more active against liver schizonts
# [3] = system: primary human hepatocytes; test: hepatic nuclei reduction relative to DMSO (100 - % of negative control); higher = more toxic to hepatocytes
# [4] = assay mode: Prophylactic (treated before or shortly after infection), fixed day 6 post-infection
# [5] = assay mode: Radical Cure (treated from day 5 post-infection for 3 days), fixed day 8 post-infection
SMILES,"hypnozoite quantity inhibition [1, 4]","hypnozoite quantity inhibition [1, 5]","schizont net growth area inhibition [2, 4]","schizont net growth area inhibition [2, 5]","hepatic nuclei reduction [3, 4] [%]","hepatic nuclei reduction [3, 5] [%]"
COc1ccccc1OCCCCn1c(C2CC2)nc2ccccc21,11,-7,40.5,-83.4,1,-7
COc1ccc(OC(C)C(=O)Nc2ccc(Cl)cc2C)cc1 (stereo not given),-28,-31,9.3,-144,-10,-8
COc1cccn2c(C(=O)N3CCCCC3)c(C(F)(F)F)nc12,7,-15,29.8,-152,-2,-9
FC(F)(F)c1ccc(Nc2nnnc3ccccc23)cc1,-39.2,15.3,87.5,-16.4,5,11
COc1cc(-c2nc(-c3ccccc3)c(-c3ccccc3)[nH]2)cc(OC)c1O,3.8,-17.1,38.3,-59.8,1,-13
O=C(Nc1c(O)cccc1-c1nc2c(C(=O)O)cccc2o1)c1cc(-c2ccccc2)on1,7,-15,17.4,-41.5,2,10
COc1cccc(-n2nnnc2S(C)(=O)=O)c1,-3,12,-5.5,22.3,-8,0
Clc1cccc(CO[C@H]2CCc3ccccc3[C@@H]2n2ccnn2)c1,-15,24,-21.1,-14.1,-2,6
CC(C)(C)n1nc(Cc2ccc(F)c(Cl)c2)c2c(N)ncnc21,-34,-10,16.2,-107,-8,5
CN1c2ccccc2N(C)C1c1ccc2c(c1)OCO2,-5.8,54.2,-49.9,-7.4,2,9
CC1CS(=O)(=O)CCN1/N=C/c1ccc([N+](=O)[O-])o1 (stereo not given),-3,-48,-10.6,36.8,-2,-4
COc1ccc(C(C)=O)cc1N1C(=O)C2C(C1=O)C1(c3ccccc3)C(=O)C2(c2ccccc2)C(c2ccc(C)cc2)=C1c1ccc(C)cc1 (stereo not given),9.1,42.7,12.4,-6.7,0,0
NCCC(O)C(=O)N[C@@H]1C[C@H](N)[C@@H](OC2O[C@H](CN)[C@@H](O)[C@H](O)[C@H]2O)[C@H](O)C1OC1O[C@H](CO)[C@@H](O)[C@H](N)[C@H]1O (stereo not given in full),-47,-34,-68.6,21.4,-11,3
CCN1CCN(Cc2ccc(NC(=O)c3cc4ccc5cccnc5c4[nH]3)cc2)CC1,93.5,-55.3,96.1,1,0,-8
COc1cc(C(=O)ON=C(N)Cc2cccc3ccccc23)cc(OC)c1OC,-25.8,56.5,-63.5,26.1,-13,3
Cc1cnc(CCNC(=O)c2cc(-c3ccc(Cl)cc3)cs2)[nH]1,14,9,39.5,-30.5,-1,-9
Cc1cc(NC(=O)c2cccc(C(F)(F)F)c2)n(-c2nc(-c3ccc4c(c3)OCO4)cs2)n1,-41.1,10.1,-52.8,-5.5,3,-8
CC(C)C(NC(=O)Cc1cccc2ccccc12)C(=O)Nc1cccc(C#N)c1 (stereo not given),13,-10,17.6,-140,-6,0

# Some of the entries above, reformatted:
SMILES	hypnozoite quantity inhibition [1, 4]	hypnozoite quantity inhibition [1, 5]	schizont net growth area inhibition [2, 4]	schizont net growth area inhibition [2, 5]	hepatic nuclei reduction [3, 4] [%]	hepatic nuclei reduction [3, 5] [%]
CC(C)(C)n1nc(Cc2ccc(F)c(Cl)c2)c2c(N)ncnc21	-34	-10	16.2	-107	-8	5
CN1c2ccccc2N(C)C1c1ccc2c(c1)OCO2	-5.8	54.2	-49.9	-7.4	2	9
CC1CS(=O)(=O)CCN1/N=C/c1ccc([N+](=O)[O-])o1 (stereo not given)	-3	-48	-10.6	36.8	-2	-4
COc1ccc(C(C)=O)cc1N1C(=O)C2C(C1=O)C1(c3ccccc3)C(=O)C2(c2ccccc2)C(c2ccc(C)cc2)=C1c1ccc(C)cc1 (stereo not given)	9.1	42.7	12.4	-6.7	0	0
NCCC(O)C(=O)N[C@@H]1C[C@H](N)[C@@H](OC2O[C@H](CN)[C@@H](O)[C@H](O)[C@H]2O)[C@H](O)C1OC1O[C@H](CO)[C@@H](O)[C@H](N)[C@H]1O (stereo not given in full)	-47	-34	-68.6	21.4	-11	3
CCN1CCN(Cc2ccc(NC(=O)c3cc4ccc5cccnc5c4[nH]3)cc2)CC1	93.5	-55.3	96.1	1	0	-8
COc1cc(C(=O)ON=C(N)Cc2cccc3ccccc23)cc(OC)c1OC	-25.8	56.5	-63.5	26.1	-13	3
Cc1cnc(CCNC(=O)c2cc(-c3ccc(Cl)cc3)cs2)[nH]1	14	9	39.5	-30.5	-1	-9
Cc1cc(NC(=O)c2cccc(C(F)(F)F)c2)n(-c2nc(-c3ccc4c(c3)OCO4)cs2)n1	-41.1	10.1	-52.8	-5.5	3	-8

# Following part.

SMILES,"hypnozoite quantity inhibition [1, 4]","hypnozoite quantity inhibition [1, 5]","schizont net growth area inhibition [2, 4]","schizont net growth area inhibition [2, 5]","hepatic nuclei reduction [3, 4] [%]","hepatic nuclei reduction [3, 5] [%]"
Cc1ccc(S(=O)(=O)n2cc(-c3ccnc(N)c3)c3cc(Br)cnc32)cc1,-27,3,89.4,52.9,14,11
Cc1cc(Nc2ccc(C)c(Cl)c2)n2nc(C(F)(F)F)nc2n1,-31,42.7,55.2,52.2,-4,-4
CCCCc1ccc(NC(=O)Nc2ccc(O[C@H]3CCCC[C@@H]3N(C)c3ccccc3)c(F)c2)cc1,25,0,-14.9,20.1,-5,-2
C=C(C)CCC(C)N1CCC(N2CCC(C(=O)NCCc3ccccc3)CC2)CC1 (stereo not given),-24.3,61.1,8.9,31.9,-15,3
COc1ccc(S(=O)(=O)Nc2ccc(CN3CCN(C(=O)c4cccc(C#N)c4)CC3)cc2)cc1,56,24,29.2,-9.7,5,-3
CCOC(=O)C1CCN(C(=O)CN2C(=O)c3ccccc3C2c2c[nH]c3ccccc23)CC1 (stereo not given),-3.2,-0.8,21.3,-116,1,-6
Nc1ccc(-c2nc3cc(Cc4ccc5[nH]c(-c6ccc(N)cc6)nc5c4)ccc3[nH]2)cc1,35.4,-38.9,84.2,33.2,15,-6
Cc1nc(-c2ccccn2)nc(N(C)CCc2ccccc2)c1Cl,6,14,-11.2,-29.7,-7,2
CN1C=C(c2ccc3ccccc3n2)C(c2c[nH]c3ccccc23)c2ccccc21 (stereo not given),19.5,31.3,22.6,46.5,-2,-3
C[C@]12CC[C@@H]3c4ccc(O)cc4CC[C@H]3[C@@H]1CC[C@@H]2O,-47,26,-16.6,10.1,-4,-3
C[C@H]1[C@H](O)[C@@H](C)/C=C/C=C/C=C/C=C/C=C/C=C/C=C/[C@H](O[C@@H]2O[C@@H](C)[C@H](O)[C@@H](N)[C@H]2O)C[C@@H]2O[C@](O)(C[C@H](O)C[C@H](O)[C@@H](O)CC[C@H](O)C[C@H](O)CC(=O)O[C@H]1C)C[C@H](O)[C@H]2C(=O)O,-36,-29,25.9,2.6,-11,-4
COc1ccc(Nc2ccccc2NC(=O)c2ccc(O)nc2)cc1,3,-4,43,-24.6,4,-4
CCOc1ccc2c(c1)CN(Cc1ccc(Cl)cc1)CO2,20.2,-8.9,24.3,-136,-1,-9
Nc1ncc(-c2cn[nH]c2)cc1-c1nc2cc(Cl)cnc2[nH]1,58,-33,84.4,93.5,8,4
CS(=O)(=O)c1cccc(-c2cnc3[nH]cc(-c4ccc(CCC(=O)O)cc4)c3c2)c1,94,6,102,111,-9,-9
Nc1ncnc2c1c(-c1cnc3ccccc3c1)nn2CC1CCNCC1,16,-29,-51.2,-71.5,-4,-6
Cc1nc(-c2ccccn2)nc(NCCc2ccc(S(C)(=O)=O)cc2)c1Cl,8,26,-44.3,59.9,-9,-5
